Source: publication PMC8964110
No constants are given. Whether binding was seen depends on the method and setting. Binding seen in cells or lysates may run through a third protein. Here binding means that the protein was enriched with, or labelled near, the bait; the list need not be complete. Tags and fused reporters may be left off the sequences shown.

B1: Rho family GTPase (EHI_070730) (protein, UniProt Q24816 1-194)
chain: MSEKPTSIKLVVVGDGAVGKTCLLISYSIRKFPEDYIPTVFDNYVVSLTAGTRQIQLALWDTAGQEEYDQLRPLSYSSASIFLICFSVTSSVSYDNVITKWHPEVIHFAPKVPIILVGTKLDTRNDPAIVKRLTEQGMTVINTAKGEELKNRIKAVKYIECSAKTSENLKTVFDEAVKTVLMNKPQQRSKCALL
B2: Long-chain-fatty-acid--CoA ligase (protein, UniProt C4M7S1 1-658)
chain: MKKQSYDSTFTKKEGNKFYFLNQTEHWSAGEKDDIEYMTQHTTYEVIKRRCEKNPENDFFGYRKREGKKYIGEYIWLKNKEVLEMTDSLASGIMNKYHLKKGDSCGIISGNRYEWYLTQFALQRHGIIPVPLYTTLGKEAIDYIISTLSITLVFCTFSDTVAEMCERNPKITLVCFDTFEDIMNHINPSISYVTFDRLIKEGKSNLIEPQLPTMDDTFSIIFTSGTSGIPKGAVHSFNSASYGSCTINSAELFKDSPMKEQTYFSYLPSAHVLDQEVTHGFIYGGGRIGFISGGIPTLIEDLSKCQPTFFIAVPRVLQKIYDKFNETYNQLGYFSQTLFNIGYYYKLNAVKNKSWNYINWDNIVFYKIHQVFGGKLKYILNGGAPLTEELYEWLRVCSGAIILQGYGLTETFGGICCSLPYMTDLNILNVGSCGPNVEIRLVSVPEMNYTIDDEYPSGEIEIRSKQNFICYYKNEEATKAAINDDGFFATGDIGKVCPDGSLAIIDRKKNLFKLAQGEYIAVEPLENKYCAMPLISQCFIYGESSDVFITAIIVLDFDELKRIASSITTESEKDSLLNIHYLNKIDIKKKILQIIQNYIKTQHVPGYEIIKNVYFETEHFSTENDLMTPSFKLKRPQLKRKYLTILKQLRTEIQNNLI
B3: Seryl-tRNA synthetase (protein, UniProt C4LV24 1-453)
chain: MGLDINLFRNQPDVIKESQKKRGASVEIVDEILALDNEWKKEGFTLDQTRKELGKIQKELGMLHKNKENPPTKEVLAEYDVKKKACESKIAELEKSVSELKVKIDAKIKSVGNIVPDSVPVEMDEKFNKIEVTYGECTPKLYHHHELIHMIGGADTERAVKVAGHRGYYLKGWGFKLNQALINYGTNFLEQRGFTPIQTPYFMRRELMAKTAQLSDFDETLYHVGTGKDVELDDQKYLIATSEQPLTALHAGEWILPKQLPIRYMGFSTNFRKEAGAHGKDTWGIFRVHQFEKIEQFCMTLPDKSWEMHEEMIKNSRDFFESLKIPYRVVNIVSGALNNAAAKKYDLEGYFPGFNEYRELVSCSNCTDYQSRELEVRLQTDKKDKTKSYVHMLNSTLCATERALCCILENYQCEDGIIVPEVLRPYVGGVEKIPFIAPKPVWAKEEKKSTKKN
B4: Galactokinase (protein, UniProt C4LYJ7 1-389)
chain: MVSLEDIKSFHAKTYCTEPEHVGFAPGRVNIIGEHTDYNDGYVLPVAIKQGTYVSVSTKPSTVTKMNFISSIDNKLVSIERQSKEKILEKYKGKWFMYVYGVIDKLLTKIQSEPKEYSICVMGDVPLGSGLSSSASIEVATGITFLKVLNIEMTGIELGLLAVDVEHEYTGVMCGIMDQFASRLCKKNTALLLDCKTHQTINEPVVLGDCLIMITNSNAPHKLESSQYNERVKQCQEAVRQLNEHYHKNEKFLRGFTVDEVQILTGIIGNRAKHVVNENDRVIKAIAAMKVGNVEELGKLMTESHMSLRNLFEVSSEELDYLVDNALKINGVFGSRLTGAGFGGCTVTLLKPSAVDEYKKMLEVYKEKFNLHPFCFILNQPEDGAHLIF
B5: Alpha-1,4 glucan phosphorylase (protein, UniProt C4LWJ2 1-884)
chain: MQKSSSSEGVSHVRRSISLNKLKNQFADAAEAEHFTNESDSEKYNNLWDYCSLYLSKDVETIKQQIANHIEYTLACQRFDFKTKSLFTATAISLRERMTEYWNDTHQYFREIQTKRMYYLSIEYLIGRSLMNAICNLGLENEYRDVVSQFGSSLEELYEYENDAALGSGGLGRLAACFLDSLATMNLPAWGYGIRYQYGMFKQQISHGYQIETPEYWLEAGNPWEIVRKDVNHEVRFGGYVTVDKATGRMKWEGGNTVRAIAYDMPVPGYKTLNTLNLRLWSSKPSNQFDLEHFNKEEDIDYWQKVHNQQKDENICKVLYPNSSHYKGQELRLKQQFFFTSASLQDIVRRFKKMRIAMNEFPQYVAIQLNDTHPTVGVLELMRILLDIEGLEWNQAWEIVVQTFAYTNHTVLPEALETWPVPMFENLLPRHLQICYEINSRFLSWVKTAHNCTEQEIAALSIIEESNPKRIRMANLAIIGSHTVNGVAAIHSQIIKDVIFRQFSKIWPHKFINVTNGVTPRRWMLQCNPGLSKLITETLKSDEWVVELSLLEGLRSLCDHSLEEKFRAVKTQNKERLIRLVSKITDGEIVLNSSYLFDVMIKRIHEYKRQSLAILGTIAQYLALKKMTPEERAQQVPRVKIFAGKAATSYENAKIIIKLINSVADIVNNDKTIDNMLKIVFIPNYSVSLAEVIIPANDINEQISTAGYEASGTSCMKFCMNGGLIIGTWDGANVEIAEEIGEENMFMFGAKKNEVELIRQQGTSYIDERLYDVLKAISGGMFGAADWFNKLIGQFWGGNDYYLVAHDFASYLEAQMKVDATWKKPQEWNHKCVMCVSKMGKFSSDRSMKEYAANVWNIHPCPLPETDMNDMMDIAKKQLLPEKK
B6: Fructose-1,6-bisphosphate aldolase (protein, UniProt C4LXD7 1-330)
chain: MAAKTVNYKELGLCNHKEMFEHAIKGGFAVPGFNFNNLEQMQAIIQACTEAKSPVILQVSKGAREYANATLLRNLAKGAVEYSKEIDPEHKGVPISLNLDHGANFQICKECVDNGFSNVMIDGSALPYEENVKLTKQVVEYAHKFGVTVEGELGVLSGVEDDVAAAEHVFTDPKDVEAFVKDTGVDALAISIGTSHGAYKFKPGMHPRIRLDILHEVEKRIPGFPIVLHGSSSVPQEWVAVINQYGGKLESAIGIPEDQIREAVKSAVCKVNIDSDGRLAMTGSIRRYLAEHPKDFDPRQYLGPARQALKELYLHKVSDKVLNSAGKSWY
B7: Epimerase domain-containing protein (protein, UniProt C4M882 1-365)
chain: MKALVLGGTGFVGRNLVKMLVDSNEYSFIRSVDKVFPETAYLSKEHASVYDNPEKCVFVQGNLVNASSVSKMFSIEGGFDVVFDCAAETKLGQEEFMYEQKTYGLTKLVAEEAVKQKVKRFVHLSNAQVYDSSSKPKDEKAKIKPWTKLAASQAKADELLIGMKELPFVILRPAIIYGPGDVTGIAPRIICAAVYKYTKKKMEFLWTGDMKLNTVHVHDVCKAMMLCGKVDGPIKNGEIYNLCDKNDTNQKKINTILEEIFQIKTGFKGTIISTAAEKLGMDGVCETVNDEHMKPWSQLCKEENLIGTPLSPYLDQELLYNNPYCIDGSSIEKKGFVYDYPEVTTELVKEEIKYFSDQKLFPSYA
B8: NAD(FAD)-dependent dehydrogenase (protein, UniProt C4M6H3 1-1066)
chain: MSSYDIVIIGAGCTGACCAMELSKYKNLKIALLEKARDVSTGATSANSGIVHCGIDTTLETLKGRLVVRGNTLIHELQPKLNFGLTTCGELMVAKTDEEIPNLNKYMEIAKTKNVPVELWDYEKIHKEEPNLSENIKKAIYCPTTSVLDPYEFTIATCLTAKANGVHIYTSTTVNGIKKIDNGYEVVCENGKKFIAKVLLNCAGVFASQVSEMLYPADFHITARKGEEYLLDRKLQGMVKHVIFPCPTGVTKGTLIIPTVDGTIMVGPNADIQDSYTDATTTSEGLKKVFDLAKLLVPTINNMDVISAFAGLRPAIIEHNDFVIRENEKFPCFIEVVGIQSPGLTASPAIAEYTKNIFIEAVKKSHPEIVLEEKSDFKYVPLSKKFRNMNDSERAEAAKKDAAYSKIVCVCEKVTEGDVNAAIDEGARTVDAIKLRTRAGMGRCQGSYCTPRVMEILSKRLNIPMTAVAKNYPGSEIAPYIAGGEEKKLTEEYPSWETIPNPHITKPCNGETIERKEFDIVVVGGGPSGLAAAKAALETKKDLKVAVIERMERVGGVLLQCIHSGFGLGRYGEELTGPEYAYRLGEETEAAGAVLMVNTYVTDVENKGEEYVVKAVVYGTAPVEIHAKKCIFTVGCRERSRFGIKVAGTRCAGVMTAGLAQALVNYKGILPGKKVVIQGSGDIGLIMARRMALEGAKVLGVYEILPKISGLQRNVVQCCKDFNIPIHLSEVVTRINGYPRITSVIMTKCDPKTLAPIAGTEYEIECDCLLLSVGLIPLPDLTQQAGHNVQLNPRTRGPIVDGFRCVEKGIYAAGNQLHVHDLADEASNEGAIAGEAAALSLGGEKEAIKVIPAPELLYCVPERVVISDKKQKLSFRFRQDFGSAHVIAKIGETIIGEEEIEHAIPAEMGHVWVIPKDCQIGQEVTLTVIPKAHEEVTEQKEGEIVKHMNCIVCPRGCPIEVKIDAKSNEITSIKGNSCPRGAAYVRQEHIEPFRVFSTTLPVEGGNLIRVPVKLTKPVPRSKIFEVMEIIHKQSPIKAPINKGQVLVKIPKMTDIVACYPVVALEE
B9: Phosphoglucomutase (protein, UniProt O15820 1-553)
chain: MQATIKRYPTSPISGQTLGTSGLRKRASEVENTPNYLENFVNAMFNAASNLQKPGKIIIGGDGRYLNLKALDIIIRVALSRGFTDIVVGKSGFMSTPAESATIIRRKAEAGFIMTASHNPAGKEHGDFGLKLNMSNGGPAPIEVTSKIEESARNIKEIVIAELNKPLNIDSVGDIEIECEGKKAVVHVIDPLEDYIAYLHECFDFENLKQFVSKYHLKVQVDGFNAVTGIYNKKVFCELLGLPESSLKNAIPMPDFGGKHPDPNLTYAAELVHAVIPEDSPYDIGFAFDGDGDRNLIVGRGAFVSPSDSLAILSTKYNDIPFFVKNGFKGVARSMPTSAAVDHVTSITETPTGWKFFGNLMDSGKISLCGEESFGTGCCGIREKDGIWAALCWVSILAAESERAQRLVGVKEILESHWAKYGRNYYQRYDFDEVDKKAAEDMMQMMRDNAKTVKCDLNGVPLKFCDDFEYHDSVDGSVTSKQGIRFVFEDGSRIIFRLSGTGSVGATIRVYFDKYSKDYKADQTKVLADMVTVAYAVSQITKFTGREKPSVVT
B10: Uncharacterized protein (EHI_118750) (protein, UniProt C4LYM3 1-135)
chain: MATEQEAMALMGSIDVPNGQWVVYEVKNKQLVFRTSGNGVDSLRDELKDDEACFALINLRCTLEGIPDQARGIFIDWKGPKCKGIAKVRVREFKDQALEVLMPHHGELEAVGKTEFTEDIILKRWAMNSGSHVIN
B11: Enhancer binding protein-1 (protein, UniProt C4M5C4 1-306)
chain: MTTLYVSHLDYSLKVEDVQNAFKTYNPKEVKIISTPIGYSRGFAFIEFATPQEAEKALEMDRHTIGKMEIKVQKALPKEETTTERKMNRRGFKGKRNTRKRHLVKRTNEVTDNMLFIKNLPFAITEEKLKEMFSKFGVVEITLIKTHRKKGNVTKNNGIAFITVKTAEEQKKAIAEMNNFEVEGRKITVAAAYKKVENKQTTKKTNEPKSLSETNVFVKNLPFTLTDEGFKKLFEKYDVVEATIVKRHNKKLNVDRSKGYGFVTFKTAEQQKKAIAEMDNFEVEGRKITVTSAYQRAEKKEETTSN
B12: MHD domain-containing protein (protein, UniProt B1N355 1-414)
chain: MISAIFFMNAKGDLLISRIYRDDVMKGVASAFRSYVLTEKNVLPVKIVGSTVFYHIRVNSLYIVALARSNNNAAVVFEVLHKIVEVFQAYFSTIDENTIKSQYVLIYELLDEILDFGYPQFCTKDELQSLITFGKAKAVQRGNIAIQATGQIPWRSPDIFYKKNQLFLDVIESVNLTVSAKGTILSNDVNGVIKMRTQLSGMPDCSLGMNDKALLLGDSAQKKSIQLADVTFHQCVRLTRFDQDRSINFIPPDGDFDLMKYRTTDNISQQFRLLHNIKESSKTHLSLDINVRALFSELQYGENVRIKIPVPKNAALCKTRCTAGSAKYHPEHAAILWRISRFNGKTQQTITVDVDLVQTTQSQRWDKPPILMDFVIPALTATGLQIRYLKIASDYKTIKWVRYITKAGAIQYRL

Target: EhVps23 (E. histolytica (endogenous in HM1:IMSS trophozoites))
Test: affinity purification with mass spectrometry; immunoprecipitation with α-EhVps23 antibody and protein G-agarose from trophozoite lysates (10 mM Tris-HCl, 50 mM NaCl, protease inhibitors, freeze-thawing; pre-cleared with Protein-G, 2 h at 4°C); precipitate separated by gel electrophoresis, LC-ESI-HDMSE

Binder | binding
B1 | binds
B2 | binds
B3 | binds
B4 | binds
B5 | binds
B6 | binds
B7 | binds
B8 | binds
B9 | binds
B10 | binds
B11 | binds
B12 | binds
